Taken from: PubChem BioAssay AID1259308 (NCATS, 2017)
Assay: 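Knock-downs that increase output of a recombinant reporter protein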 (primary screen). System: human HEK293 embryonic kidney cells stably expressing firefly luciferase (HEK-CMV-Luc2-Hygro). Reagents: single siRNA against human genes, 0.8 pmol siRNA per well. Time to read-out: 72 h. Measured: 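Luciferase light (ONE-Glo) measured on one replicate plate set and viability (CellTiter-Glo) on the other, scaled to a negative control siRNA, with robust z-scores and luciferase per cell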. Reading the numbers: total luciferase, z-score: higher = more reporter protein produced. Rule for the call: 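Active when the median/MAD z-score for overall luciferase is greater than 3; a gene was taken forward for validation with new siRNAs if at least two of its three siRNAs passed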. Meaning of the calls: active = raised luciferase; inactive = no rise.
The deposit covers about 59,000 reagents; below is an unselected part. About 1,510 of them (2.6%) count as active. 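Calls use total luciferase alone and ignore viability, so some active siRNAs may act by altering cell number.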 The numbers tell different reagents against one gene apart. Not all columns of the deposit are shown.

{"gene symbol": "GTF3C6 (GeneID 112495)", "reagent": 1, "total luciferase, z-score": 1.41, "Call": "inactive"}
{"gene symbol": "GTF3C6 (GeneID 112495)", "reagent": 2, "total luciferase, z-score": 0.0547, "Call": "inactive"}
{"gene symbol": "GTF3C6 (GeneID 112495)", "reagent": 3, "total luciferase, z-score": -0.648, "Call": "inactive"}
{"gene symbol": "TEX14 (GeneID 56155)", "reagent": 1, "total luciferase, z-score": -0.649, "Call": "inactive"}
{"gene symbol": "TEX14 (GeneID 56155)", "reagent": 2, "total luciferase, z-score": -0.204, "Call": "inactive"}
{"gene symbol": "TEX14 (GeneID 56155)", "reagent": 3, "total luciferase, z-score": 0.129, "Call": "inactive"}
{"gene symbol": "F13A1 (GeneID 2162)", "reagent": 1, "total luciferase, z-score": 0.466, "Call": "inactive"}
{"gene symbol": "F13A1 (GeneID 2162)", "reagent": 2, "total luciferase, z-score": 0.31, "Call": "inactive"}
{"gene symbol": "F13A1 (GeneID 2162)", "reagent": 3, "total luciferase, z-score": 0.141, "Call": "inactive"}
{"gene symbol": "CCNF (GeneID 899)", "reagent": 1, "total luciferase, z-score": 0.479, "Call": "inactive"}
{"gene symbol": "CCNF (GeneID 899)", "reagent": 2, "total luciferase, z-score": -1.89, "Call": "inactive"}
{"gene symbol": "CCNF (GeneID 899)", "reagent": 3, "total luciferase, z-score": 1.19, "Call": "inactive"}
